PubChem BioAssay AID1053208, Peter MacCallum Cancer Centre, 2014

Purpose: 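Synthetic lethal interactions between gene loss and doxorubicin in osteosarcoma cells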 (primary screen)
Cell system: mouse osteosarcoma cells, early-passage culture from an engineered mouse model of fibroblastic bone tumour
Knock-down reagent: siRNA pool against mouse genes, 40 nM
Time to read-out: about 120 h (48 h before drug, then 72 h with drug)
Challenge: doxorubicin 100 nM for 72 h, roughly 30-40% inhibitory dose
Read-out: 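Luminescent ATP signal taken as viability with or without 100 nM doxorubicin for 72 h; mean of two wells set against non-targeting siRNA and turned into robust z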
Direction: viability z-score with doxorubicin: higher = more viable cells under doxorubicin; viability z-score without drug: higher = more viable cells with knock-down alone
Call rule: 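a pool counts as active when its viability z-score with doxorubicin is -2 or below and its z-score without drug lies between -2 and 2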
Here is one part, drawn at random, of about 17,000 deposited reagents. 788 of all reagents (4.7%) count as active. 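Calls rest on z-score classes alone; an extra cut-off of viability at most 70% of control was not applied to them.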 Further read-outs or replicates are left out here. No sequences are given here.

| gene knocked down | combined z-score class | viability z-score with doxorubicin | viability z-score without drug | Outcome |
| --- | --- | --- | --- | --- |
| Naip5 (GeneID 17951) | no change with or without drug | 0.56 | 0.84 | inactive |
| Decr1 (GeneID 67460) | no change with or without drug | 0.56 | -0.67 | inactive |
| Grem1 (GeneID 23892) | no change with or without drug | -0.11 | -1.18 | inactive |
| Tpd52l2 (GeneID 66314) | no change with or without drug | -0.9 | 0.51 | inactive |
| Nxt2 (GeneID 237082) | no change with or without drug | 0.11 | 0.67 | inactive |
| Hbb-b1 (GeneID 15129) | no change with or without drug | 0.9 | 0.84 | inactive |
| Slc52a2 (GeneID 52710) | no change with or without drug | -0.34 | -0.67 | inactive |
| Prpf4b (GeneID 19134) | no change with or without drug | -1.12 | -1.52 | inactive |
| Cyp7a1 (GeneID 13122) | no change with or without drug | 1.24 | 1.35 | inactive |
| Ro60 (GeneID 20822) | no change with or without drug | -0.22 | -0.84 | inactive |
| Dtnbp1 (GeneID 94245) | no change with or without drug | 0.22 | 0.84 | inactive |
| Wasl (GeneID 73178) | no change with or without drug | -1.57 | 1.01 | inactive |
| Apobr (GeneID 171504) | no change with or without drug | -0.67 | 0.84 | inactive |
| Mipep (GeneID 70478) | no change with or without drug | -0.11 | 0 | inactive |
| Or52j3 (GeneID 404317) | low cell count with and without drug | -2.02 | -2.19 | inactive |
| Serpinb5 (GeneID 20724) | no change with or without drug | 0.56 | 1.18 | inactive |
| Lrriq3 (GeneID 74435) | no change with or without drug | -0.67 | -0.17 | inactive |
| Dusp11 (GeneID 72102) | no change with or without drug | -1.01 | 0.51 | inactive |
| Hgs (GeneID 15239) | no change with or without drug | 0.79 | 1.52 | inactive |
| Pcdhgb8 (GeneID 93705) | no change with or without drug | -0.45 | 0 | inactive |
| Mrfap1 (GeneID 67568) | no change with or without drug | 1.46 | 0.84 | inactive |
| Wrap53 (GeneID 216853) | no change with or without drug | 0.22 | 1.18 | inactive |
| B4galt5 (GeneID 56336) | no change with or without drug | 0.56 | 1.18 | inactive |
| 2900060N12Rik (GeneID 102641621) | no change with or without drug | 1.8 | 1.52 | inactive |
| Twf1 (GeneID 19230) | no change with or without drug | -0.45 | -1.85 | inactive |
| Crp (GeneID 12944) | no change with or without drug | 0.34 | 0 | inactive |
| Or13a20 (GeneID 258962) | low cell count without drug only | -0.45 | -2.53 | inactive |
| Phyhipl (GeneID 70911) | no change with or without drug | -0.9 | -0.34 | inactive |
| Mapkap1 (GeneID 227743) | no change with or without drug | 0.45 | -1.85 | inactive |
| Hrh1 (GeneID 15465) | low cell count without drug only | 0 | -2.36 | inactive |
| Or5ac17 (GeneID 404310) | no change with or without drug | 0 | -0.51 | inactive |
| Scx (GeneID 20289) | no change with or without drug | 0.9 | 1.52 | inactive |
| Flt1 (GeneID 14254) | no change with or without drug | 0.11 | 1.35 | inactive |
| Crx (GeneID 12951) | no change with or without drug | 0.22 | 0.84 | inactive |
| Zc3h10 (GeneID 103284) | no change with or without drug | -1.24 | 0.51 | inactive |
| Eloc (GeneID 67923) | no change with or without drug | -1.57 | -0.17 | inactive |
| Pheta1 (GeneID 231717) | no change with or without drug | -0.45 | 0.17 | inactive |
| Slc7a14 (GeneID 241919) | no change with or without drug | -0.9 | 1.52 | inactive |
| Dut (GeneID 110074) | no change with or without drug | 1.24 | 0.67 | inactive |
| Alad (GeneID 17025) | no change with or without drug | -0.67 | -1.52 | inactive |
| Zfp37 (GeneID 22696) | no change with or without drug | 0.22 | 0.84 | inactive |
| Prss45 (GeneID 260408) | no change with or without drug | 0.22 | -0.84 | inactive |
| Eya2 (GeneID 14049) | no change with or without drug | -0.45 | 0.51 | inactive |
| Rabep2 (GeneID 70314) | no change with or without drug | -0.45 | 1.18 | inactive |
| 2510039O18Rik (GeneID 77034) | no change with or without drug | 0.9 | 0.84 | inactive |
| Crtac1 (GeneID 72832) | no change with or without drug | 0.45 | 0.84 | inactive |
| Surf6 (GeneID 20935) | no change with or without drug | 0.22 | 0.84 | inactive |
| Ltb4r2 (GeneID 57260) | high cell count without drug only | 0.22 | 2.02 | inactive |
| Olig3 (GeneID 94222) | no change with or without drug | 1.46 | 1.85 | inactive |
| Cpne8 (GeneID 66871) | high cell count with doxorubicin only | 2.7 | 0.34 | inactive |
| Meig1 (GeneID 104362) | no change with or without drug | -0.56 | 0.34 | inactive |
| Morc2a (GeneID 74522) | no change with or without drug | 1.57 | 0.67 | inactive |
| Plaa (GeneID 18786) | no change with or without drug | 1.35 | 1.52 | inactive |
| Wdr6 (GeneID 83669) | no change with or without drug | 0.34 | 1.18 | inactive |
| Wtap (GeneID 60532) | no change with or without drug | -1.12 | -0.17 | inactive |
| Ube2d2b (GeneID 73318) | no change with or without drug | -1.12 | 1.35 | inactive |
| 4930474M22Rik (GeneID 74917) | no change with or without drug | -1.35 | -0.17 | inactive |
| Capn2 (GeneID 12334) | no change with or without drug | 1.35 | 0.17 | inactive |
| Cstf3 (GeneID 228410) | no change with or without drug | 0.9 | -0.17 | inactive |
| Or4c107 (GeneID 258241) | no change with or without drug | 0.56 | 0.17 | inactive |
| Cenpa (GeneID 12615) | no change with or without drug | -1.35 | -0.17 | inactive |
| Nr1d2 (GeneID 353187) | no change with or without drug | 1.8 | 0.34 | inactive |
| 1500015L24Rik (GeneID 68994) | no change with or without drug | 0.67 | -0.51 | inactive |

9 of these entries, reformatted:
Eloc (GeneID 67923): combined z-score class = no change with or without drug; viability z-score with doxorubicin = -1.57; viability z-score without drug = -0.17; Outcome = inactive
Pheta1 (GeneID 231717): combined z-score class = no change with or without drug; viability z-score with doxorubicin = -0.45; viability z-score without drug = 0.17; Outcome = inactive
Slc7a14 (GeneID 241919): combined z-score class = no change with or without drug; viability z-score with doxorubicin = -0.9; viability z-score without drug = 1.52; Outcome = inactive
Dut (GeneID 110074): combined z-score class = no change with or without drug; viability z-score with doxorubicin = 1.24; viability z-score without drug = 0.67; Outcome = inactive
Alad (GeneID 17025): combined z-score class = no change with or without drug; viability z-score with doxorubicin = -0.67; viability z-score without drug = -1.52; Outcome = inactive
Zfp37 (GeneID 22696): combined z-score class = no change with or without drug; viability z-score with doxorubicin = 0.22; viability z-score without drug = 0.84; Outcome = inactive
Prss45 (GeneID 260408): combined z-score class = no change with or without drug; viability z-score with doxorubicin = 0.22; viability z-score without drug = -0.84; Outcome = inactive
Eya2 (GeneID 14049): combined z-score class = no change with or without drug; viability z-score with doxorubicin = -0.45; viability z-score without drug = 0.51; Outcome = inactive
Rabep2 (GeneID 70314): combined z-score class = no change with or without drug; viability z-score with doxorubicin = -0.45; viability z-score without drug = 1.18; Outcome = inactive
